In US20130142831A1, “COMPOUNDS FOR INFLAMMATION AND IMMUNE-RELATED USES” (Synta Pharmaceuticals Corp., priority 2004, published 2013):
At least one compound was matched to its structure with a doubt left.

By UniProt entry, the sequences of proteins in these tests, tags left out.
UniProt P22001, whole entry: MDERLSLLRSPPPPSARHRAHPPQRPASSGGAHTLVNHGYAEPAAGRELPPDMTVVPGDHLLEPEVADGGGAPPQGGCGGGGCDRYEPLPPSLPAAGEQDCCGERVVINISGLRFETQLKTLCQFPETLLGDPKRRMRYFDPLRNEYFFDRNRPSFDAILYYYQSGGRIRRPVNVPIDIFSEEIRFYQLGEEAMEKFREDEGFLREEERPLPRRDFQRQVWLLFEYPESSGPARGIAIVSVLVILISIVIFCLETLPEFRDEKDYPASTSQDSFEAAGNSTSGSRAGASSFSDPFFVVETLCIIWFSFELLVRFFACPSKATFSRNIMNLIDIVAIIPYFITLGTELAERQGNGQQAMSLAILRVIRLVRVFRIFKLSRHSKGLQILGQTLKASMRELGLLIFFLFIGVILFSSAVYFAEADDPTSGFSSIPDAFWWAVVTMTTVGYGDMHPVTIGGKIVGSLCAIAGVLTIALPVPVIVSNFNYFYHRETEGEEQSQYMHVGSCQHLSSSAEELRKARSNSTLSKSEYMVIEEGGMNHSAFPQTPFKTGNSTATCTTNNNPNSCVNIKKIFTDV

Assays:
Kv1.3 = molecular target: T1, Kv1.3 (Homo sapiens, UniProt P22001); test: Patch clamp studies of inhibition of Kv1.3 in Jurkat T cells; format: cell-based
T1 construct: endogenous in cells; host or cells: Jurkat T cells

IL-4 = test: Cytokine inhibition in PHA-stimulated primary human PBMCs: IL-4; format: cell-based; settings: PBMCs stimulated with PHA
Experimental: (§1) Cytokine production was measured using commercially available human ELISA assay kits (from Cell Science, Inc.) following the manufacturers instructions.

IL-2 = test: Cytokine inhibition in PHA-stimulated primary human PBMCs: IL-2; format: cell-based; settings: PBMCs stimulated with PHA
Experimental: as §1

IL-13 = test: Cytokine inhibition in PHA-stimulated primary human PBMCs: IL-13; format: cell-based; settings: PBMCs stimulated with PHA
Experimental: as §1

INF-γ = test: Cytokine inhibition in PHA-stimulated primary human PBMCs: INF-γ; format: cell-based; settings: PBMCs stimulated with PHA
Experimental: as §1

TNF-α = test: Cytokine inhibition in PHA-stimulated primary human PBMCs: TNF-α; format: cell-based; settings: PBMCs stimulated with PHA
Experimental: as §1

IL-5 = test: Cytokine inhibition in PHA-stimulated primary human PBMCs: IL-5; format: cell-based; settings: PBMCs stimulated with PHA
Experimental: as §1

GM-CSF = test: Cytokine inhibition in PHA-stimulated primary human PBMCs: GM-CSF; format: cell-based; settings: PBMCs stimulated with PHA
Experimental: as §1

IL-2 production = test: Inhibition of IL-2 production in PHA-activated Jurkat cells; format: cell-based, human; settings: 20 hours, bins given with μM limit
Experimental: Jurkat cells were placed in a 96 well plate (0.5 million cells per well in 1% FBS medium) then test compounds of this invention were added at different concentrations. After 10 minutes, the cells were activated with PHA (final concentration 2.5 μg/mL) and incubated for 20 hours at 37° C. under CO2. The final volume was 200 μL. Following incubation, the cells were centrifuged and the supernatants collected and stored at −70° C. prior to assaying for IL-2 production. A commercial kit (IL-2 Eli-pair, Diaclone Research, Besancon, France) was used to detect production of IL-2, from which dose response curves were obtained. The IC50 value was calculated as the concentration at which. 50% of maximum IL-2 production after stimulation was inhibited versus a non-stimulation control.

**Q.** Which “Inhibition of Kv1.3” value (Kv1.3) does the source give for `COc1ccc2c(c1)nc(C(F)(F)F)n2-c1ccc(NC(=O)c2c(F)ccc(F)c2F)cc1` [Compound 1, 2,3,6-Trifluoro-N-[4-(2-trifluoromethyl-5-methoxy-benzoimidazol-1-yl)-phenyl]-benzamide] here?
**A.** inhibit Kv1.3

**Q.** How did the “Inhibition of IL-4 (in words)” value (IL-4) turn out when `CC(C)(C)OC(=O)Nc1ccc(C(=O)Nc2ccc(-n3c(C(F)(F)F)nc4ccccc43)cc2)c(F)c1F` [Compound 31, N-(4-{N-[4-(2-trifluoromethyl-benzoimidazol-1-yl)-phenyl]-carbamoyl}-2,3-difluoro-phenyl)-carbamic acid t-butyl ester] was run?
**A.** potent inhibitors

**Q.** What about the “Inhibition of IL-2 (in words)” value (IL-2) of the same compound?
**A.** potent inhibitors

**Q.** And the “Inhibition of IL-13 (in words)” value (IL-13)?
**A.** potent inhibitors

**Q.** What about the “Inhibition of INF-γ (in words)” value (INF-γ) of the same compound?
**A.** potent inhibitors

**Q.** What about the “Inhibition of TNF-α (in words)” value (TNF-α) of the same compound?
**A.** potent inhibitors

**Q.** What about the “Inhibition of IL-5 (in words)” value (IL-5) of the same compound?
**A.** potent inhibitors

**Q.** And the “Inhibition of GM-CSF (in words)” value (GM-CSF)?
**A.** potent inhibitors

**Q.** `O=C(Nc1ccc(-n2c(C(F)(F)F)nc3ccccc32)nc1)c1cc(F)ccc1F` [Compound 41, 2,5-Difluoro-N-[2-(2-trifluoromethyl-benzoimidazol-1-yl)-pyrid-5-yl]-benzamide] was tested. Which “IC50 (inhibition of IL-2 production)” value (IL-2 production) did it give?
**A.** 500 nM-1 μM

**Q.** With `Cc1cc2nc(C(F)(F)F)n(-c3ccc(NC(=O)c4cccc(F)c4F)cc3)c2cc1C` [Compound 42, 2,3-Difluoro-N-[4-(2-trifluoromethyl-5,6-dimethyl-benzoimidazol-1-yl)-phenyl]-benzamide] as the compound, how does the “IC50 (inhibition of IL-2 production)” value (IL-2 production) read?
**A.** 500 nM-1 μM

**Q.** How did the “IC50 (inhibition of IL-2 production)” value (IL-2 production) turn out when `Nc1ccc(C(=O)Nc2ccc(-n3c(C(F)(F)F)nc4ccccc43)cc2)c(F)c1F` [Compound 43, 2,3-Difluoro-4-amino-N-[4-(2-trifluoromethyl-benzoimidazol-1-yl)-phenyl]-benzamide] was run?
**A.** 500 nM-1 μM

**Q.** For `O=C(Nc1cccc(F)c1F)c1ccc(-n2c(C(F)(F)F)nc3ccccc32)cc1` [Compound 46, N-(2,3-difluorophenyl)-4-(2-trifluoromethyl-benzoimidazol-1-yl)-benzamide], which “IC50 (inhibition of IL-2 production)” value (IL-2 production) is on record?
**A.** 500 nM-1 μM

**Q.** With `N#C/C(=C\c1ccc(-n2c(C(F)(F)F)nc3ccccc32)cc1)c1cc(F)ccc1F` [Compound 48, 1-(2,5-difluoro-phenyl)-3-[4-(2-trifluoromethyl-benzoimidazol-1-yl)-phenyl]-acrylonitrile] as the compound, how does the “IC50 (inhibition of IL-2 production)” value (IL-2 production) read?
**A.** 500 nM-1 μM

**Q.** For `O=C(Nc1ccc(-n2c(C(F)(F)F)nc3cccnc32)cc1)c1cc(F)ccc1F` [Compound 56, 2,5-Difluoro-N-[4-(2-trifluoromethyl-imidiazo[4,5-b]pyrid-3-yl)-phenyl]-benzamide], which “IC50 (inhibition of IL-2 production)” value (IL-2 production) is on record?
**A.** 500 nM-1 μM

**Q.** How did the “Inhibition of IL-4 (in words)” value (IL-4) turn out when `CCCCc1ccc(C(=O)Nc2ccc(-n3c(C(F)(F)F)nc4cc(OC)ccc43)cc2)cc1` [Compound 66, 4-Butyl-N-[4-(2-trifluoromethyl-5-methoxy-benzoimidazol-1-yl)-phenyl]-benzamide] was run?
**A.** potent inhibitors

**Q.** What about the “Inhibition of IL-2 (in words)” value (IL-2) of the same compound?
**A.** potent inhibitors

**Q.** What about the “Inhibition of IL-13 (in words)” value (IL-13) of the same compound?
**A.** potent inhibitors

**Q.** What about the “Inhibition of INF-γ (in words)” value (INF-γ) of the same compound?
**A.** potent inhibitors

**Q.** And the “Inhibition of TNF-α (in words)” value (TNF-α)?
**A.** potent inhibitors

**Q.** What about the “Inhibition of IL-5 (in words)” value (IL-5) of the same compound?
**A.** potent inhibitors

**Q.** And the “Inhibition of GM-CSF (in words)” value (GM-CSF)?
**A.** potent inhibitors

**Q.** How did the “IC50 (inhibition of IL-2 production)” value (IL-2 production) turn out when `COc1ccc2c(c1)nc(C(F)(F)F)n2-c1ccc(NC(=O)c2cccc(C(F)(F)F)c2)cc1` [Compound 91, 3-Trifluoromethyl-N-[4-(2-trifluoromethyl-5-methoxy-benzoimidazol-1-yl)-phenyl]-benzamide] was run?
**A.** 500 nM-1 μM

**Q.** Which “IC50 (inhibition of IL-2 production)” value (IL-2 production) does the source give for `COc1ccc(CC(=O)Nc2ccc(-n3c(C(F)(F)F)nc4cc(OC)ccc43)cc2)cc1` [Compound 92, 2-(4-Methoxy-phenyl)-N-[4-(2-trifluoromethyl-5-methoxy-benzoimidazol-1-yl)-phenyl]-acetamide] here?
**A.** 500 nM-1 μM

**Q.** With `CC(=O)Nc1ccc2nc(C(F)(F)F)n(-c3ccc(NC(=O)c4cccc(F)c4F)cc3)c2c1` [Compound 93, 2,3-Difluoro-N-[4-(2-trifluoromethyl-6-acetylamino-benzoimidazol-1-yl)-phenyl]-benzamide] as the compound, how does the “IC50 (inhibition of IL-2 production)” value (IL-2 production) read?
**A.** 500 nM-1 μM

**Q.** For `COc1ccc2c(c1)nc(C(F)(F)F)n2-c1ccc(NC(=O)Cc2cccs2)cc1` [Compound 94, 2-(Thien-2-yl)-N-[4-(2 trifluoromethyl-5-methoxy-benzoimidazol-1-yl)-phenyl]-acetamide], which “IC50 (inhibition of IL-2 production)” value (IL-2 production) is on record?
**A.** 500 nM-1 μM

**Q.** How did the “IC50 (inhibition of IL-2 production)” value (IL-2 production) turn out when `COc1ccc2c(c1)nc(C(F)(F)F)n2-c1ccc(NC(=O)Cc2ccccc2)cc1` [Compound 95, 2-phenyl-N-[4-(2-trifluoromethyl-5-methoxy-benzoimidazol-1-yl)-phenyl]-acetamide] was run?
**A.** 500 nM-1 μM
